Test results from US12570661B2, “Isoform-specific aldehyde dehydrogenase inhibitors” (The Board of Trustees of the Leland Stanford Junior …, priority 2020, dated 2026).

Amino acid sequences for entries named in this document (tags omitted). Residues count along the entry.
UniProt P30837, 18-517 limits assumed: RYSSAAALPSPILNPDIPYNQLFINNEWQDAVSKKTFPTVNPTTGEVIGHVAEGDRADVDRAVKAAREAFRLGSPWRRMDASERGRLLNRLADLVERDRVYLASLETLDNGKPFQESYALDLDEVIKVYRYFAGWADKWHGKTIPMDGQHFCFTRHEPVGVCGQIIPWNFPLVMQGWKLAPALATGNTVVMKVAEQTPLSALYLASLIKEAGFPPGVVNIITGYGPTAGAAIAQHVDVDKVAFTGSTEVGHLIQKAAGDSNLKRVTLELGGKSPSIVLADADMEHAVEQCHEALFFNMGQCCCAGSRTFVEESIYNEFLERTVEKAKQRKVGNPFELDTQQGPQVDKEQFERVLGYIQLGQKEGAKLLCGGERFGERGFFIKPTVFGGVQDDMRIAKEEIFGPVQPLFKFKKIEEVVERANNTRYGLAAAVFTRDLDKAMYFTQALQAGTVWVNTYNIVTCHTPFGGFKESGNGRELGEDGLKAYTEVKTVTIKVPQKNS

Assays:
[1] = target: ALDH1B1 (Homo sapiens, UniProt P30837); assay: ALDH1B1 enzyme kinetics assay (NADH fluorescence, acetaldehyde substrate); conditions: read-out: ALDH1B1(in vitro) IC50; 1 μg/mL enzyme, 1 mM acetaldehyde, 1 mM NAD+
Description: Cloning, expression, and purification of human recombinant ALDH1A1, ALDH1A3, ALDH2, ALDH3A1, ALDH3A2, ALDH4A1, ALDH5A1 and ALDH7A1 isozymes were conducted as described previously (Chen, C. H. et al. (2015) Proc. Natl. Acad. Sci. U.S.A. 112, 3074-3079). Human ALDH1A2 (Origene, SC109995) and ALDH1B1 (T. Hurley, Indiana University) plasmids were cloned into the pET-15b expression vector (Novagen, 69661-3) containing an N-terminal hexahistidine tag. The mitochondria-targeting sequence of ALDH1B1 was also removed. […] The protein concentration for each fraction was measured (500 μL elution volume was collected as one fraction and was immediately mixed with 500 μL glycerol. The protein concentration for each fraction was measured (600 nm Protein Assay Reagent; Thermo Fisher Scientific), and protein-containing fractions were diluted with an equal volume of glycerol and stored at −80° C. Samples from each step were also collected for SDS-PAGE gel analysis. For ALDH1B1 protein co-expression with chaperones, pET-15b-ALDH1B1 and GroEL/GroES (Addgene, plasmid pBB541) plasmids were co-transformed into competent BL21 E. coli cells, which were subsequently grown in 1 L of Luria-Bertani medium containing 100 μg/mL ampicillin and 50 μg/mL spectinomycin at 37° C. […]

[2] = system: HEK293T cells
Description: HEK-293T cells were seeded into a 96-well plate at a density of 5×10^3 cells/well and treated with varying concentrations of selected compounds or an equivalent amount of DMSO vehicle. The cells were cultured for 4-5 days without a media change, and after the DMSO-treated cells approached 100% confluence, the cell viabilities were measured using a CellTiter-Glo 3D Cell Viability Assay kit (Promega) and a Veritas microplate luminometer (Turner BioSystems) as described above.

[3] = system: SW480 cells (adherent); assay: Cell viability assay, adherent SW480 cultures; conditions: read-out: Adherent SW480 GI50; adherent culture, 7 days
Description: SW480 or HCT116 cells were seeded into regular or Matrigel-coated 96-well plates at a density of 1000 cells/well. The cells were cultured in the corresponding adherent or spheroid culture medium (200 μL/well) containing the designated compounds or an equivalent amount of DMSO vehicle. Each culture was maintained for 7 days, and then cell viabilities were measured using a CellTiter-Glo 3D Cell Viability Assay kit (Promega). Briefly, 100 μL of the culture medium was removed from each well and replaced with 100 μL 3D Cell Assay reagent. The cells in each well were next homogenized by vigorous pipetting, and the plate was incubated for 10 min at room temperature to stabilize the chemiluminescent signal. A 150-μL aliquot from each well was then transferred into a white opaque 96-well assay plate (flat-bottom and non-treated; Corning Costar) and luminescence intensities were measured with a Veritas microplate luminometer (Turner BioSystems).

[4] = system: SW480 cells (spheroid); assay: Matrigel spheroid growth / viability assay, SW480; assay type: cell-based; conditions: read-out: Spheroid SW480 GI50; Matrigel spheroid culture, 7 days
Description: To prepare Matrigel-coated culture plates, 96-well and 24-well plates were placed on ice and coated with 25 μL or 300 μL, respectively, of Matrigel matrix (Corning, LDEV-free) that had been thawed overnight at 4° C. The plates were then placed in a 37° C. incubator for 30 min to allow the Matrigel to solidify. […]
To quantify spheroid growth at the 7-day endpoint, unstained spheroids were imaged with phase-contrast illumination using a Keyence BZ-X710 microscope. […] Spheroid sizes were quantified with ImageJ (Fiji) software using masks created with the default “Threshold” function and foreground/background adjustments to optimize masking fidelity. […]
SW480 or HCT116 cells were seeded into regular or Matrigel-coated 96-well plates at a density of 1000 cells/well. […] Each culture was maintained for 7 days, and then cell viabilities were measured using a CellTiter-Glo 3D Cell Viability Assay kit (Promega). […] A 150-μL aliquot from each well was then transferred into a white opaque 96-well assay plate (flat-bottom and non-treated; Corning Costar) and luminescence intensities were measured with a Veritas microplate luminometer (Turner BioSystems).

## CCc1cc(Cl)ccc1C1=CN(c2ccc(-c3ccccc3OC)cc2)C2=NCCCN12
[1]
  IC50: 59 nM
[2]
  GI50: 1700 nM
[3]
  GI50: 1900 nM
[4]
  GI50: 230 nM

The structures given here were assigned with low confidence; some may be wrong.
